Reference: PubChem BioAssay AID1259254 (NCATS, 2017)
This is an unselected part of about 59,000 deposited reagents. About 1,550 of them (2.6%) were called active. 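G2 share is only a proxy for re-replication; each gene was hit by three separate siRNAs, and active genes were retested.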 Unmarked entries are inactive. Reagents against one gene are numbered here. Further read-outs or replicates are left out here. Reagent sequences are not shown. Not given: the amount of reagent.

Test: 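Gene knock-downs that lead to re-replication, shown by excess G2 DNA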 (primary screen)
Cells: human HCT116 colorectal cancer cells
Reagent: single siRNA against human genes
Time to read-out: 3 days
Detection: 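Imaged Hoechst DNA stain sorts each cell into a cycle phase by DNA amount; per plate, G2 fraction set to 0% for non-targeting and 100% for GMNN siRNA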
Reading the numbers: G2 robust z-score: higher = more G2 cells, more excess DNA replication
Rule for the call: 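An siRNA counts as active if its G2 robust z-score lies at least 5 MADs above the screen median; here such calls match roughly 38% of GMNN control or more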

| gene knocked down | reagent no. | G2 robust z-score |
| --- | --- | --- |
| FRMD8 | 1 | 1.16 |
| FRMD8 | 2 | -0.0765 |
| FRMD8 | 3 | -0.521 |
| EXO1 | 1 | 2.58 |
| EXO1 | 2 | -0.637 |
| EXO1 | 3 | 1.7 |
| MED14OS | 1 | -0.262 |
| MED14OS | 2 | -0.814 |
| MED14OS | 3 | -0.849 |
| SLC30A5 | 1 | -0.362 |
| SLC30A5 | 2 | -0.55 |
| SLC30A5 | 3 | 0.242 |
| MAK | 1 | -0.573 |
| MAK | 2 | 1.09 |
| MAK | 3 | -0.932 |
| OSGIN2 | 1 | 0.841 |
| OSGIN2 | 2 | 0.498 |
| OSGIN2 | 3 | 2.36 |
| TMEM201 | 1 | -0.688 |
| TMEM201 | 2 | -0.0572 |
| TMEM201 | 3 | 0.612 |
| TTLL3 | 1 | -0.226 |
| TTLL3 | 2 | -0.671 |
| TTLL3 | 3 | 3.52 |
| NAGPA | 1 | -0.656 |
| NAGPA | 2 | 2.23 |
| NAGPA | 3 | -1.02 |
| GAB3 | 1 | -0.943 |
| GAB3 | 2 | 3.36 |
| GAB3 | 3 | -0.305 |
| SETSIP | 1 | 0.0854 |
| SETSIP | 2 | -0.147 |
| SETSIP | 3 | -0.726 |
| ZAR1 | 1 | -0.779 |
| ZAR1 | 2 | 0.331 |
| ZAR1 | 3 | 0.0971 |
| BCAR1 | 1 | 12.8 (active) |
| BCAR1 | 2 | 4.31 |
| BCAR1 | 3 | 2.75 |
| NSUN3 | 1 | -0.125 |
| NSUN3 | 2 | 0.662 |
| NSUN3 | 3 | -0.407 |
| NIPAL1 | 1 | -0.203 |
| NIPAL1 | 2 | 4.45 |
| NIPAL1 | 3 | -0.759 |
| RAB6A | 1 | -1.02 |
| RAB6A | 2 | -0.771 |
| RAB6A | 3 | -0.434 |
| BMS1 | 1 | 3.27 |
| BMS1 | 2 | 1.56 |
| BMS1 | 3 | 5.42 (active) |
| RNF7 | 1 | -0.388 |
| RNF7 | 2 | 0.135 |
| RNF7 | 3 | 2.77 |
| PCMTD1 | 1 | 0.268 |
| PCMTD1 | 2 | -0.713 |
| PCMTD1 | 3 | 0.486 |
| CA3 | 1 | 1.21 |
| CA3 | 2 | 0.055 |
| CA3 | 3 | 2.52 |
| CPZ | 1 | 2.06 |
| CPZ | 2 | 0.483 |
| CPZ | 3 | 0.464 |
| LOC730110 | 1 | 2.32 |
| LOC730110 | 2 | 1.02 |
| LOC730110 | 3 | -0.333 |
| DHCR7 | 1 | 3.73 |
| DHCR7 | 2 | 1.87 |
| DHCR7 | 3 | -0.776 |

Records listed so far marked active:
| gene knocked down | reagent no. | G2 robust z-score |
| --- | --- | --- |
| BCAR1 | 1 | 12.8 (active) |
| BMS1 | 3 | 5.42 (active) |
